These are yes or no findings as the source states them, for the method shown. A result given as binding can be weak or reduced; the word gives no strength. For some of these results: Binding seen in cells or lysates may run through a third protein. For some of these results: Tags and fused reporters may be left off the sequences shown.
Legend:
[1] = target: TGNap1-CFP (Arabidopsis thaliana); assay: FRET or BRET; acceptor photobleaching FRET at the TGNs in cells of stable Arabidopsis transformants; donor TGNap1-CFP, acceptor YFP fusions bleached for 10 s
[2] = target: TGNap1 (yeast two-hybrid bait) (Arabidopsis thaliana) (UniProt F4KCQ2); assay: two-hybrid; direct assay, Matchmaker LexA system, bait in pGilda, prey in pB42AD-GW, co-transformed into yeast strain EGY48; β-galactosidase assay, plates after 3 days at 28 °C

Row | Binder | binding [1] | binding [2]
1 | N-terminal cytosolic domain of YIP4B (aa 1-143) (domain or fragment, UniProt Q93VH1 1-143) MSHNDTIPLYQSSQSDIDEIENMMNDSFQSGPGTVLPARPPSPIRPSIPVSSSPFVQSNLPPLPPSSSSSTQKVMPVPAPPPLPSAGNEGNKSIGGSGFGSPPNTLTEPVWDTVKRDLSRIVSNLKLVVFPNPYREDPGKALR | – | binds
2 | YFP-YIP4A (protein, UniProt O64614 1-281) MSQGDTVPLHPSSQSDIDEIENLINESVQSGPGTVLAARPPSPTRPSIPVSSSSSSSPFMQSNLPPLHPSSSAQKVTHVPVPPPLPAVSNSSNFQGASAFGSPPNTLTEPVWDTVKRDLSRIVSNLKLVVFPNPYREDPGKALRDWDLWGPFFFIVFLGLTLSWSASVKKSEVFAVAFALLAAGAVILTLNVLLLGGHIIFFQSLSLLGYCLFPLDVGAVICMLKDNVILKMVVVSVTLAWSSWAAYPFMSSAVNPRRKALALYPVFLMYVSVGFLIIAIN | binds | –

The next lines start with the values.

Row | binding [1] | binding [2] | Binder
3 | binds | – | YFP-YIP4B (protein, UniProt Q93VH1 1-280) MSHNDTIPLYQSSQSDIDEIENMMNDSFQSGPGTVLPARPPSPIRPSIPVSSSPFVQSNLPPLPPSSSSSTQKVMPVPAPPPLPSAGNEGNKSIGGSGFGSPPNTLTEPVWDTVKRDLSRIVSNLKLVVFPNPYREDPGKALRDWDLWGPFFFIVFLGLTLSWSASVKKSEVFAVAFALLAAGAVILTLNVLLLGGHIIFFQSLSLLGYCLFPLDVGAVICMLKDNVILKMVVVSVTLAWSSWAAYPFMSAAVNPRRKALALYPVFLMYVSVGFLIIAIN
4 | – | binds | N-terminal cytosolic domain of YIP4A (aa 1-140) (domain or fragment, UniProt O64614 1-140) MSQGDTVPLHPSSQSDIDEIENLINESVQSGPGTVLAARPPSPTRPSIPVSSSSSSSPFMQSNLPPLHPSSSAQKVTHVPVPPPLPAVSNSSNFQGASAFGSPPNTLTEPVWDTVKRDLSRIVSNLKLVVFPNPYREDPG

From PMC6294250
